Library screen at single concentrations

Chains of the proteins cited; added tags and fusions are not shown. Residues count along the entry.
UniProt Q4DA54, 1-478: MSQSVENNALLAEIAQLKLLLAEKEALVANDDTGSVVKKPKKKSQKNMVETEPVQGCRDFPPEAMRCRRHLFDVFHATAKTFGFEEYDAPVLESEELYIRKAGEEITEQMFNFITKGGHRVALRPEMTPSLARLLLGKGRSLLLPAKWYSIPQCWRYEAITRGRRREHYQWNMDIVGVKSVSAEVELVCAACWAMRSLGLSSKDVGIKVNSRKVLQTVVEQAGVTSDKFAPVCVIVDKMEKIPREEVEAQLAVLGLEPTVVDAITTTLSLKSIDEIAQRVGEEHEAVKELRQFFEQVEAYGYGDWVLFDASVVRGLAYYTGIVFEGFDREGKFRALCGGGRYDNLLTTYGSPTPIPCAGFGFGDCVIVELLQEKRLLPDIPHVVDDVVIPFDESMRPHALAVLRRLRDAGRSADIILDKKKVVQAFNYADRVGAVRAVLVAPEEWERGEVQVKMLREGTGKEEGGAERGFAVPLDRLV
UniProt P9WNZ1, whole entry: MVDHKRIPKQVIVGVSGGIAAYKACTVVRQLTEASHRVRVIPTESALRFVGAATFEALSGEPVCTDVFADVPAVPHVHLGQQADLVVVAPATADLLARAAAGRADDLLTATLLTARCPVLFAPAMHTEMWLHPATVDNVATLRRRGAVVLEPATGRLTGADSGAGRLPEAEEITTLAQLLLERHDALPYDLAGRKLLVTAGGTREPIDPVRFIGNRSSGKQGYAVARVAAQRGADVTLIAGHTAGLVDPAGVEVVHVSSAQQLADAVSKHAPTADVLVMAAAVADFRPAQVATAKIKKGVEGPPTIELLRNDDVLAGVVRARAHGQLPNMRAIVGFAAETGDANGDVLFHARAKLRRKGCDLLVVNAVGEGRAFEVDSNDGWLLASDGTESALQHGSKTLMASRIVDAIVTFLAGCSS
UniProt A4I591, 1-473: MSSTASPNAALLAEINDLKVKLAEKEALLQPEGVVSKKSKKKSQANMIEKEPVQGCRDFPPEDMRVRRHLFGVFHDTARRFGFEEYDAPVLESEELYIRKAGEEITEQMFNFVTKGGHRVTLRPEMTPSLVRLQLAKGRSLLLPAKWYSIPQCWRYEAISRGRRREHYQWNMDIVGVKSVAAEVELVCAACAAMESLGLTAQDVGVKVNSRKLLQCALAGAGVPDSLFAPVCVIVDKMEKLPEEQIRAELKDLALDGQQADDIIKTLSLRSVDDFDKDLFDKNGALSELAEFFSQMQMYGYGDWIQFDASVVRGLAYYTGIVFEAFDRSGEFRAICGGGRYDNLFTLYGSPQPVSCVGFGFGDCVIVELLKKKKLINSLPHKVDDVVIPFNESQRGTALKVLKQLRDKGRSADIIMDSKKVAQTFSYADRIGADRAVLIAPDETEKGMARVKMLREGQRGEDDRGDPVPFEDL

Data taken from ChEMBL document CHEMBL3988442, “University of Dundee, Small-Polar-MMV Screening Library” (2021).

TcHisRS: 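Histidine-tRNA ligase, Trypanosoma cruzi CL Brener (UniProt Q4DA54). Enzyme assay of histidyl-tRNA synthetase; the read-out is not stated. Compounds at 30 µM. Direction is inferred from retests: higher values go with stronger inhibition. Of about 69,000 compounds tested this way, about 31 (0.045%) reached 50% or more in at least one test.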
Leishmania in macrophages: 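Cell assay of Leishmania donovani living inside macrophages; the read-out is not stated. Compounds at 30 µM. Direction is inferred from retests: higher values go with stronger inhibition. Of about 69,000 compounds tested this way, about 1,000 (1.5%) reached 50% or more in at least one test.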
Toxoplasma: 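Assay of Toxoplasma gondii numbers, read through their beta-galactosidase reporter with a colour substrate. Tested at 10 µM. The record gives no direction; the compounds picked for IC50 retests had high values, so higher reads as fewer parasites. About 67,000 compounds were tested under these conditions; 0.38% (about 260) showed 50% or more at least once.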
CoaBC: 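Enzyme assay of CoaBC with a phosphate dye (Biomol Green) read at 650 nm. Target: Coenzyme A biosynthesis protein CoaBC, Mycobacterium tuberculosis (UniProt P9WNZ1). Tested at 30 µM. Direction is inferred from only a few compounds that gave an IC50; most scored high, so higher reads as stronger inhibition. Most strong results did not repeat in a second test. Of about 67,000 compounds tested this way, about 40 (0.06%) reached 50% or more in at least one test.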
LiHisRS: 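Enzyme assay of histidyl-tRNA synthetase; the read-out is not stated. Target: Histidine-tRNA ligase, Leishmania infantum (UniProt A4I591). Concentration: 30 µM. The record gives no direction; compounds that gave an IC50 in retests scored well above the rest, so higher reads as stronger inhibition. The assay is labelled LdHisRS but filed under L. infantum. Size under these conditions: about 69,000 compounds, about 410 of them at 50% or above in at least one test.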

Values are the deposited “Percent Effect”, in %.
How 0% and 100% were set is not recorded. Most values in the screen are low, and negative values occur.
The compounds are a random part of those screened.
Two or more numbers in one place are separate tests of the same structure; such repeats can differ widely.
A dash means the value is not listed here; it may have been measured.

| structure | TcHisRS | Leishmania in macrophages | Toxoplasma | CoaBC | LiHisRS |
|---|---|---|---|---|---|
| `CC(=O)c1ccc(S(=O)(=O)Nc2cnn(C3CCOCC3)c2)cc1` | 3.518 | 13.31 | 13.17 | -1.564 | 33.71 |
| `CC1CN(Cc2nnsc2Cl)CCN1c1nccs1` (stereo not shown) | 8.772 | 21.04 | -34.19 | 2.525 | 5.263 |
| `CC(C)(C)c1cn(C2CCN(C(=O)c3cnccn3)CC2)nn1` | 0.578 | 39.8 | 1.869 | 2.73 | 21.28 |
| `CO[C@H]1CN(Cc2ccc(F)c(F)c2)C[C@@]12CCCO2` | 13.19 | 1.288 and 12.32 | -6.061 | 2.184 | 4.348 |
| `Cc1nccc(NCc2cncc3c2CCN(CC2CC2)C3)n1.Cl.Cl` | - | 25.61 | -25.23 | - | - |
| `C[C@@H]1CN(Cc2cc3ccccc3n2C)CC[C@@]1(O)C1CC1` | 1.739 | 34.38 | 4.817 | 6.418 | 3.333 |
| `CN(C)C(=O)N1CCC(C(=O)N2CCOC(CC3CCCCC3)C2)CC1` (stereo not shown) | 3.59 | 6.134 | 15.23 | 0 | 7.937 |
| `CCc1nc(CN(C)C2CCN(Cc3cnc(C)cn3)C2)no1` (stereo not shown) | -2.256 | 6.177 | - | 5.141 | -25.84 |
| `Cn1cc(C(=O)N2CCCC(c3cnccn3)C2)cn1` (stereo not shown) | 6.667 | -7.478 and 17.24 | 3.869 | 2.421 | 10.31 |
| `CCC1CN(Cc2ccccc2)CCN1Cc1nnc(C2CCC2)o1` (stereo not shown) | 0 | 11.38 | -4.817 | 7.889 | -3.846 |
| `CN1CCC(c2nnc3ccc(C(=O)NC4CCCC4)cn23)C1` (stereo not shown) | 2.4 | - | - | -12.53 | 0.885 |
| `O=C(NCC1CC1)C1=NOC2(CCN(S(=O)(=O)c3cccs3)C2)C1` (stereo not shown) | 6.011 | 20.44 | -1.945 | 1.673 | 5.882 |
| `COc1nccc(N2CCN(Cc3ccc(C)cc3)C(=O)C2)c1C#N` | 6.695 | 15.5 | 2.944 | -4.545 | 25.47 |
| `CCc1ccc(O)c(C(=O)N2CCN(CC(=O)N(CC)CC)CC2)c1` | -0.5435 | -2.281 | -1.124 | 15.29 | 21.33 |
| `CCc1cc(CN(C)C(=O)CN2CC(c3ccccc3)CC2=O)on1` (stereo not shown) | 2.128 | 20.53 | -1.84 | 2.41 | 7.463 |
| `CCN(CC)C1CCN(C(=O)NCc2c(C)noc2C)CC1` | 10.74 | -4.227 | 17.58 | -5.376 | 11.43 |
| `Cn1cc(CN2CCCC23CCN(C(=O)c2ccncc2)CC3)cn1.O=C(O)C(F)(F)F` | - | 6.899 | -5.41 | - | - |
| `[H][C@]12CCCCN1CCC[C@H]2CNC(=O)Cn1ccc2ccccc21` | - | 28.71 | 19 | - | - |
| `Cc1ccc(N2CCCC3(CCN(C(=O)CC(F)(F)F)C3)C2)nn1` (stereo not shown) | 1.031 | -2.115 | 14.09 | 2.463 | 6 |
| `Cc1nc(C(=O)NS(=O)(=O)c2cccc(C#N)c2)cs1` | 0 | -11.44 | -3.864 | 11.28 | 18.92 |
| `COc1ccc(Nc2ccc(C#N)cn2)cc1N1CCCC1=O` | 0 | -21.71 | 5.605 | 5.511 | 9.524 |
| `COCC1CN(S(=O)(=O)Cc2ccccc2)Cc2c1cnn2C` (stereo not shown) | 5.063 | - | - | - | 22.41 |
| `N#CC1C(=O)Nc2c(cnn2C2CCCC2)C12CCCC2` (stereo not shown) | 9.244 | 1.443 | -1.08 | 6.048 | 17.54 |
| `CCc1nc2n(n1)CC(NCc1nc(C)ccc1O)CC2` (stereo not shown) | 1.087 | 11.81 | 2.363 | 4.993 | 11.43 |
| `COCCN1CC[C@H]2OCC[C@@H](C(=O)N3CCCO3)[C@H]2C1` | -2.439 | - | - | 7.519 | 20.51 |
| `CCc1nnc(Nc2cccc(C3CCN(C(C)=O)CC3)n2)s1` | 0.7491 | -1.295 | 19.04 | 1.611 | 12 |
| `CC(C(=O)NCCOc1cccc(Cl)c1)n1cncn1` (stereo not shown) | 0 | 13.1 | - | -4.37 | 7.865 |
| `CCOc1ncccc1CNC(=O)N1CCCC1c1cc(C)no1` (stereo not shown) | 8.714 | 38.72 | -2.974 | -3.571 | 18.45 |
| `CNc1ncc(C(=O)N2CCOC(C(=O)NC3CCCC3)C2)cn1` (stereo not shown) | 3.101 | -29.13 | -11.34 | 5.767 | 5.674 |
| `CCc1ncc2c(n1)CN(CC(=O)NC1CCCCNC1=O)CC2` (stereo not shown) | 9.804 | 0.9141 | 9.707 | 1.595 | 18.33 |
| `COc1ccc(CN2CC[C@@H](O)[C@@H]2Cc2ccccc2)cc1.O=C(O)C(F)(F)F` | - | -18.25 | -3.347 | - | - |
| `NC(=O)C(NCc1cccs1)c1ccccc1` (stereo not shown) | 0.6024 | 1.935 | 3.818 | -1.341 | 8.791 |
| `COCCOCC(=O)Nc1ccccc1F` | 6.533 | 19.03 | -3.859 | 1.805 | 6.742 |
| `Cc1noc(C)c1CN1CCC2(COCc3cnc(N(C)C)nc32)C1` (stereo not shown) | 4.478 | - | - | 7.662 | 18.92 |
| `COc1ccc(C2(C(=O)N3C[C@@H](C(=O)O)[C@H](C(C)C)C3)CC2)cc1` | 7.143 | 25.2 | 7.179 | -4.3 | 9.302 |
| `CC(C)NC(=O)[C@@H]1C[C@@H](N)CN1C(=O)c1cc2c([nH]c1=O)CCCC2` | 3.96 | 2.09 | 6.329 | 4.405 | 26.03 |
| `CC(C)OCCN1CCC(C(=O)c2cc(F)ccc2F)CC1` | 8.187 | 21.2 | -30.34 | 5.357 | 21.82 |
| `Cn1nccc1CCC(=O)N1CCCC(c2cnccn2)C1` (stereo not shown) | 4.478 | 7.053 and 19.75 | -51.82 | 11.44 | 17.89 |
| `COCCCN1CCCC12CCN(Cc1cccnc1OC)CC2.O=C(O)C(F)(F)F.O=C(O)C(F)(F)F` | - | 22.3 | 0.9169 | - | - |
| `CCCc1nc(C(=O)N2C[C@H](CO)C[C@H](CN3CCOCC3)C2)cs1` | 4.167 | -3.042 | -6.008 | 3.532 | 9.677 |
| `[H][C@@]12CN(c3ncccn3)C[C@]1([H])N(CCCc1ccc(F)cc1)C(=O)O2` | - | 22.18 | 5.427 | - | - |
| `CCC(NC(=O)CS(=O)(=O)C1CCCC1)c1cc(F)ccc1F` (stereo not shown) | 4.124 | 32.32 | -7.931 | 3.423 | 9.677 |
| `CC(=O)N1CCC2(C=C(C(=O)NC3CC3)c3ccccc32)CC1` | 0 | 1.849 | -1.072 | 2.96 | 5.769 |
| `CCS(=O)(=O)N1CCC(c2cc3n(n2)[C@@H](C(F)(F)F)C[C@@H](C)N3)CC1` | -0.5405 | 8.478 | -0.8328 | -9.444 | 8.333 |
| `O=C1Nc2ccccc2CC12CCCN2Cc1ccccn1` (stereo not shown) | 1.775 | 20.8 | 14.16 | 2.368 | 0 |
| `O=C(O)C(F)(F)F.O=C1COC2(CCN(c3cccc(F)c3)CC2)CN1Cc1ccccn1` | - | 4.02 and 2.27 | 5.291 | - | - |
| `O=C(NC1CCCC1)N1CC[C@H]2[C@H]1CCN2c1nncs1` | 2.532 | - | - | - | 15.52 |
| `CC(C)(O)CN1CCN(C(=O)c2sccc2C2CC2)CC1` | 1.88 | 11.56 | -1.969 | -2.35 | -8.108 |
| `Cc1cc(N(C)Cc2c(C)noc2C)n2nc(C)c(C)c2n1` | -0.9901 | -52.84 | -4.762 | 7.341 | 20.55 |
| `Cn1cc(C[C@H]2[C@H](N3CCOCC3)CCN2c2ncc(F)cn2)cn1.O=C(O)C(F)(F)F` | - | -3.238 | -0.947 | - | - |
| `CCCc1cc(C(=O)Nc2nc(SC)ns2)[nH]n1` | -4.902 | 1.948 | 10.52 | 3.415 | 12.8 |
| `NC(=O)CN1CCC(C(=O)NCC(O)c2cccc(F)c2)CC1` (stereo not shown) | 4.938 | 29.3 | 6.822 | 3.804 | 11.76 |
| `COc1ccc(F)cc1C(C(=O)O)N1CCCN(C2CCCC2)CC1` (stereo not shown) | 3.261 | 27.32 | -8.025 | -23.59 | 18.18 |
| `Cc1nccc([C@H]2C[C@@H]3CCN(Cc4ccco4)C[C@H]3O2)n1` | 7.438 | - | - | 0 | 16.36 |
| `CCOCC(=O)NCC(C)(O)c1cc(C)oc1C` (stereo not shown) | 4.712 | 0.396 | -52.95 | 3.64 | 17.24 |

The first 6 entries again:

* CC(=O)c1ccc(S(=O)(=O)Nc2cnn(C3CCOCC3)c2)cc1 : TcHisRS: 3.518%; Leishmania in macrophages: 13.31%; Toxoplasma: 13.17%; CoaBC: -1.564%; LiHisRS: 33.71%
* CC1CN(Cc2nnsc2Cl)CCN1c1nccs1 (stereo not shown) : TcHisRS: 8.772%; Leishmania in macrophages: 21.04%; Toxoplasma: -34.19%; CoaBC: 2.525%; LiHisRS: 5.263%
* CC(C)(C)c1cn(C2CCN(C(=O)c3cnccn3)CC2)nn1 : TcHisRS: 0.578%; Leishmania in macrophages: 39.8%; Toxoplasma: 1.869%; CoaBC: 2.73%; LiHisRS: 21.28%
* CO[C@H]1CN(Cc2ccc(F)c(F)c2)C[C@@]12CCCO2 : TcHisRS: 13.19%; Leishmania in macrophages: 1.288% and 12.32%; Toxoplasma: -6.061%; CoaBC: 2.184%; LiHisRS: 4.348%
* Cc1nccc(NCc2cncc3c2CCN(CC2CC2)C3)n1.Cl.Cl : Leishmania in macrophages: 25.61%; Toxoplasma: -25.23%
* C[C@@H]1CN(Cc2cc3ccccc3n2C)CC[C@@]1(O)C1CC1 : TcHisRS: 1.739%; Leishmania in macrophages: 34.38%; Toxoplasma: 4.817%; CoaBC: 6.418%; LiHisRS: 3.333%